Results published in the supplement of paper PMC8728848.
Some of the results follow.

What was measured:
Assay in all cases: glycan array binding signal (z-score within array); higher = stronger binding
Settings in all cases: glycan notation: IUPAC condensed, linker removed
[1] = biological target: Gal6S(b1-4)Glc
Summary of the method: (§1)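 Glycan array binding is given as a within-array Z-score, which can be read as non-binding when negative. The arrays, 3228 of them, came from the Consortium for Functional Glycomics database and were retained only where the protein sequence was available. Z-scores were averaged across arrays of the same protein sequence at different concentrations or buffers and across linkers.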

[2] = biological target: Gal6S(b1-4)Glc6S
Summary of the method: as §1

[3] = biological target: Gal6S(b1-4)GlcNAc
Summary of the method: as §1

[4] = biological target: Gal6S(b1-4)GlcNAc6S
Summary of the method: as §1

[5] = biological target: GalNAc(a1-3)Gal
Summary of the method: as §1

[6] = biological target: GalNAc(a1-3)GalNAc
Summary of the method: as §1

[7] = biological target: GalNAc(a1-3)GalNAc(b1-3)Gal(a1-4)Gal(b1-4)Glc
Summary of the method: as §1

[8] = biological target: GalNAc(a1-3)GalNAc(b1-3)Gal(a1-4)Gal(b1-4)GlcNAc
Summary of the method: as §1

[9] = biological target: GalNAc(b1-3)Gal
Summary of the method: as §1

[10] = biological target: GalNAc(b1-3)Gal(a1-4)Gal(b1-4)GlcNAc
Summary of the method: as §1

[11] = biological target: GalNAc(b1-3)Gal(a1-4)Gal(b1-4)GlcNAc(b1-3)Gal(b1-4)Glc
Summary of the method: as §1

[12] = biological target: GalNAc(b1-3)Gal(a1-6)Gal(b1-4)Glc
Summary of the method: as §1

[13] = biological target: GalNAc(b1-3)GalNAc
Summary of the method: as §1

[14] = biological target: GalNAc(b1-3)GlcNAc
Summary of the method: as §1

[15] = biological target: GalNAc(b1-4)Gal(b1-4)Glc
Summary of the method: as §1

[16] = biological target: GalNAc(b1-4)GlcNAc
Summary of the method: as §1

[17] = biological target: GalNAc(b1-4)GlcNAc(b1-2)Man
Summary of the method: as §1

[18] = biological target: GalNAc(b1-4)GlcNAc(b1-2)Man(a1-3)[GalNAc(b1-4)GlcNAc(b1-2)Man(a1-6)]Man(b1-4)GlcNAc(b1-4)GlcNAc
Summary of the method: as §1

[19] = biological target: GalNAc(b1-4)GlcNAc(b1-3)GalNAc(b1-4)GlcNAc
Summary of the method: as §1

[20] = biological target: GalNAc(b1-4)GlcNAc6S
Summary of the method: as §1

[21] = biological target: GalNAc(b1-6)GalNAc
Summary of the method: as §1

[22] = biological target: GalNAc3S(b1-4)GlcNAc
Summary of the method: as §1

[23] = biological target: GalNAc3S(b1-4)GlcNAc3S
Summary of the method: as §1

[24] = biological target: GalNAc3S(b1-4)[Fuc(a1-3)]GlcNAc
Summary of the method: as §1

[25] = biological target: GalNAc4S6S(b1-4)GlcNAc
Summary of the method: as §1

[26] = biological target: GalNAc6S(b1-4)GlcNAc
Summary of the method: as §1

[27] = biological target: Glc(a1-4)Glc
Summary of the method: as §1

[28] = biological target: Glc(a1-4)Glc(a1-4)Glc(a1-4)Glc
Summary of the method: as §1

[29] = biological target: Glc(a1-6)Glc(a1-6)Glc
Summary of the method: as §1

[30] = biological target: Glc(a1-6)Glc(a1-6)Glc(a1-6)Glc
Summary of the method: as §1

[31] = biological target: Glc(b1-4)Glc
Summary of the method: as §1

[32] = biological target: Glc(b1-6)Glc
Summary of the method: as §1

[33] = biological target: GlcA(b1-3)Gal
Summary of the method: as §1

[34] = biological target: GlcA(b1-3)GlcNAc
Summary of the method: as §1

[35] = biological target: GlcA(b1-6)Gal
Summary of the method: as §1

[36] = biological target: GlcA3S(b1-3)Gal(b1-4)GlcNAc(b1-2)Man
Summary of the method: as §1

[37] = biological target: GlcA3S(b1-3)Gal(b1-4)GlcNAc(b1-3)Gal(b1-4)Glc
Summary of the method: as §1

[38] = biological target: GlcNAc(a1-3)Gal(b1-4)GlcNAc
Summary of the method: as §1

[39] = biological target: GlcNAc(a1-4)Gal(b1-3)GlcNAc
Summary of the method: as §1

[40] = biological target: GlcNAc(a1-4)Gal(b1-4)GalNAc
Summary of the method: as §1

[41] = biological target: GlcNAc(a1-4)Gal(b1-4)GlcNAc
Summary of the method: as §1

[42] = biological target: GlcNAc(a1-4)Gal(b1-4)GlcNAc(b1-3)Gal(b1-4)Glc
Summary of the method: as §1

[43] = biological target: GlcNAc(a1-4)Gal(b1-4)GlcNAc(b1-3)Gal(b1-4)GlcNAc
Summary of the method: as §1

[44] = biological target: GlcNAc(a1-4)Gal(b1-4)GlcNAc(b1-3)Gal(b1-4)GlcNAc(b1-3)Gal(b1-4)GlcNAc
Summary of the method: as §1

[45] = biological target: GlcNAc(a1-4)Gal(b1-4)GlcNAc(b1-3)Gal(b1-4)[Fuc(a1-3)]GlcNAc(b1-3)Gal(b1-4)[Fuc(a1-3)]GlcNAc
Summary of the method: as §1

B1: Ovorubin (Pomacea canaliculata), J7I2T6 (protein)
chain: MFVATSLLLAIATLVVRASPHNYLIMDIEPPKSVSERDILNLLSPLQVKHSFRVTGSTRLLIVIRLDAQSYEKLDEITVPGKVEVIPAVNMADTMERCGVSWPRVELTDDNVTLFESESTLTDVTKEQLKAMLIGYGEHMSGLLQAHRFEYYQAAGATPHRHFVFVNSVPDEIEVFGREGVDIWGGPGEFVVKPQYVTRI
[1]
  glycan array binding signal (z-score): 0.015
[2]
  glycan array binding signal (z-score): 3.93
[3]
  glycan array binding signal (z-score): -0.758
[4]
  glycan array binding signal (z-score): -0.558
[5]
  glycan array binding signal (z-score): -0.629
[6]
  glycan array binding signal (z-score): -0.067
[7]
  glycan array binding signal (z-score): -0.475
[8]
  glycan array binding signal (z-score): -0.17
[9]
  glycan array binding signal (z-score): -0.276
[10]
  glycan array binding signal (z-score): 0.217
[11]
  glycan array binding signal (z-score): -0.665
[12]
  glycan array binding signal (z-score): -0.472
[13]
  glycan array binding signal (z-score): -0.073
[14]
  glycan array binding signal (z-score): 0.328
[15]
  glycan array binding signal (z-score): -0.307
[16]
  glycan array binding signal (z-score): 0.635
[17]
  glycan array binding signal (z-score): -0.618
[18]
  glycan array binding signal (z-score): -0.493
[19]
  glycan array binding signal (z-score): 0.257
[20]
  glycan array binding signal (z-score): -0.066
[21]
  glycan array binding signal (z-score): -0.284
[22]
  glycan array binding signal (z-score): -0.338
[23]
  glycan array binding signal (z-score): -0.163
[24]
  glycan array binding signal (z-score): -1.29
[25]
  glycan array binding signal (z-score): -0.483
[26]
  glycan array binding signal (z-score): -0.335
[27]
  glycan array binding signal (z-score): -0.045
[28]
  glycan array binding signal (z-score): 0.075
[29]
  glycan array binding signal (z-score): -0.57
[30]
  glycan array binding signal (z-score): -0.19
[31]
  glycan array binding signal (z-score): -0.473
[32]
  glycan array binding signal (z-score): -0.801
[33]
  glycan array binding signal (z-score): -0.128
[34]
  glycan array binding signal (z-score): -0.443
[35]
  glycan array binding signal (z-score): -0.181
[36]
  glycan array binding signal (z-score): 0.354
[37]
  glycan array binding signal (z-score): 0.189
[38]
  glycan array binding signal (z-score): -0.682
[39]
  glycan array binding signal (z-score): -0.515
[40]
  glycan array binding signal (z-score): 0.125
[41]
  glycan array binding signal (z-score): -0.551
[42]
  glycan array binding signal (z-score): -0.52
[43]
  glycan array binding signal (z-score): -0.55
[44]
  glycan array binding signal (z-score): -0.555
[45]
  glycan array binding signal (z-score): 0.026
